This is an account of results in PMC12430079, “Comprehensive UPLC-MS/MS Method for Quantifying Four Key Intestinal Permeability Markers in Caco-2 Models” (Molecules, 2025).

The nature of the series: physchem. To be noted: Recovery under stability condition. How it is done: These tests included assessing short-term stability at room temperature, long-term stability during storage at −20 °C for up to 45 days, and stability across three freeze-thaw cycles. Additionally, the stability of the analytes was tested in the media used for intestinal permeability assays, specifically HBSS with MES and HEPES buffers at pH 6.0 and 7.4.

In turn, `CC(C)NCC(O)COc1ccc(CC(N)=O)cc1` (centres unmarked) [Atenolol, atenolol] had a recovery of 85.5 ± 2.8% and a recovery at 36 d of 86.2 ± 5.12%.
